Reference: PubChem BioAssay AID328 (DTP/NCI, 2004)
The list is a part of this screen's results and no random one: its compounds were picked by chemical class. Other doses and runs of a compound may be missing. T/C is the treated group as % of the vehicle group. Some entries give survivors of the animals treated and no T/C: the source files T/C as zero there, which appears to mark a toxic dose or a test without result, not a measured value. Some survivor counts are full or nearly so, which does not show that the dose was tolerated: survival well below the control is almost never listed, so the zero probably covers shortened survival too. Survivors were counted at the toxicity check, usually on the fifth day, unless a day is given; later deaths do not show. Schedules are NCI's codes, read here as Q, the interval in days (D) or hours (H), X, the number of doses. Some complexes appear as separate parts, the way the source draws them; their charges need not add up. For survival time, the PubChem record calls one and a half times the control and up active, and a quarter to a half above the control has no call in these data; cut-offs in other NCI protocols can differ. Some entries were tested several times; the values are given in rising order. Some entries show no survivor count and are marked so; the dose need not have been tolerated. Brackets with × give the number of equal values in this list. Some T/C values are followed by the survivors on the day toxicity was checked, most often the fifth; without a count or a note in brackets, all were alive then.

Tested on: BDF1 mice, P388 leukemia ip, median survival T/C
Assay: NCI In Vivo Anticancer Drug Screen. Data for tumor model P388 Leukemia (intraperitoneal) in B6D2F1 (BDF1) mice
Details: T/C endpoint: median survival time, higher T/C = longer survival
Procedure, shortened: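 Transplantable tumour in mice; compound vs vehicle dosing; survival scored; ratio of treated to control reported.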

[1] = dose: 100.0 mg/kg/injection, schedule: Q01DX009 (ip), vehicle: saline with Tween-80
[2] = dose: 200.0 mg/kg/injection, schedule: Q01DX009 (ip), vehicle: saline with Tween-80
[3] = dose: 50.0 mg/kg/injection, schedule: Q01DX009 (ip), vehicle: Klucel (hydroxypropylcellulose) (HPC)
[4] = dose: 100.0 mg/kg/injection, schedule: Q01DX009 (ip), vehicle: Klucel (hydroxypropylcellulose) (HPC)
[5] = dose: 100.0 mg/kg/injection, schedule: Q04DX003 (ip), vehicle: Klucel (hydroxypropylcellulose) (HPC)
[6] = dose: 200.0 mg/kg/injection, schedule: Q01DX009 (ip), vehicle: Klucel (hydroxypropylcellulose) (HPC)
[7] = dose: 200.0 mg/kg/injection, schedule: Q04DX003 (ip), vehicle: Klucel (hydroxypropylcellulose) (HPC)
[8] = dose: 400.0 mg/kg/injection, schedule: Q01DX009 (ip), vehicle: Klucel (hydroxypropylcellulose) (HPC)
[9] = dose: 400.0 mg/kg/injection, schedule: Q04DX003 (ip), vehicle: Klucel (hydroxypropylcellulose) (HPC)
[10] = dose: 6.25 mg/kg/injection, schedule: Q01DX009 (ip), vehicle: saline
[11] = dose: 12.5 mg/kg/injection, schedule: Q01DX009 (ip), vehicle: saline
[12] = dose: 25.0 mg/kg/injection, schedule: Q01DX009 (ip), vehicle: saline
[13] = dose: 50.0 mg/kg/injection, schedule: Q04DX003 (ip), vehicle: saline
[14] = dose: 100.0 mg/kg/injection, schedule: Q04DX003 (ip), vehicle: saline
[15] = dose: 200.0 mg/kg/injection, schedule: Q04DX003 (ip), vehicle: saline
[16] = dose: 400.0 mg/kg/injection, schedule: Q04DX003 (ip), vehicle: saline
[17] = dose: 25.0 mg/kg/injection, schedule: Q04DX003 (ip), vehicle: Klucel (hydroxypropylcellulose) (HPC)
[18] = dose: 50.0 mg/kg/injection, schedule: Q04DX003 (ip), vehicle: Klucel (hydroxypropylcellulose) (HPC)
[19] = dose: 25.0 mg/kg/injection, schedule: Q01DX009 (ip), vehicle: Klucel (hydroxypropylcellulose) (HPC)
[20] = dose: 25.0 mg/kg/injection, schedule: Q01DX009 (ip), vehicle: saline with Tween-80

For `NNS(=O)(=O)c1ccc(N(CCCl)CCCl)cc1`, the T/C [1] was 90 % of control, the survivor count [2] was 6 of 6 and the survivor count (dose: 400.0 mg/kg/injection, schedule: Q01DX009 (ip), vehicle: saline with Tween-80) was 6 of 6.
For `C1C[N-]1.C1C[N-]1.C1C[N-]1.[Br][Rh]([Br])[Br]`, the T/C [3] was 105 % of control, the T/C [4] was 105 % of control and the survivor count [4] was 6 of 6. The T/C [5] was 100 % of control, the T/C [6] was 105 % of control and the survivor count [6] was 5 of 6. The T/C [7] was 105 % of control [5 of 6 alive], the T/C [8] was 86 % of control and the T/C [9] was 100 % of control.
`CCN(CCCl)CC1OC(O)C(O)C1O` (stereo not given) was tested, and the T/C (dose: 0.26 mg/kg/injection, schedule: Q04DX003 (ip), vehicle: saline) was 129 % of control, the T/C (dose: 0.4 mg/kg/injection, schedule: Q04DX003 (ip), vehicle: saline) was 141 % of control and the T/C (dose: 0.6 mg/kg/injection, schedule: Q04DX003 (ip), vehicle: saline) was 145 and 150 % of control. The T/C (dose: 0.9 mg/kg/injection, schedule: Q04DX003 (ip), vehicle: saline) was 162 % of control, the T/C (dose: 1.3 mg/kg/injection, schedule: Q04DX003 (ip), vehicle: saline) was 175 % of control and the T/C (dose: 2.6 mg/kg/injection, schedule: Q01DX009 (ip), vehicle: saline) was 236 % of control. The T/C (dose: 3.0 mg/kg/injection, schedule: Q04DX003 (ip), vehicle: saline) was 162 % of control, the T/C (dose: 4.0 mg/kg/injection, schedule: Q01DX009 (ip), vehicle: saline) was 218 % of control and the T/C (dose: 5.0 mg/kg/injection, schedule: Q04DX003 (ip), vehicle: saline) was 170 % of control. For the same compound, the T/C (dose: 6.0 mg/kg/injection, schedule: Q01DX009 (ip), vehicle: saline) was 240 % of control, the T/C [10] was 216 % of control and the T/C (dose: 8.0 mg/kg/injection, schedule: Q04DX003 (ip), vehicle: saline) was 168 and 204 % of control. The T/C (dose: 9.0 mg/kg/injection, schedule: Q01DX009 (ip), vehicle: saline) was 150 % of control, the T/C (dose: 12.0 mg/kg/injection, schedule: Q04DX003 (ip), vehicle: saline) was 204 % of control and the survivor count [11] was 6 of 6. The T/C (dose: 12.5 mg/kg/injection, schedule: Q04DX003 (ip), vehicle: saline) was 225 % of control, the T/C (dose: 18.0 mg/kg/injection, schedule: Q04DX003 (ip), vehicle: saline) was 131 % of control and the survivor count [12] was 5 of 6. For the same compound, the T/C (dose: 25.0 mg/kg/injection, schedule: Q04DX003 (ip), vehicle: saline) was 120 % of control, the survivor count [13] was 6 of 6 and the survivor count [14] was 6 of 6. The survivor count [15] was 0 of 6 and the survivor count [16] was 0 of 6.
For `Cc1ccc(P(=S)(Cl)Cl)cc1`, the T/C [17] was 118 % of control, the T/C [18] was 109 % of control and the T/C [5] was 104 % of control.
With `O=[N+]([O-])c1ccc(Nc2ccc(Oc3ccc([N+](=O)[O-])cc3[N+](=O)[O-])cc2)c([N+](=O)[O-])c1` the T/C [4] was 100 % of control, the T/C [6] was 95 % of control [4 of 6 alive] and the T/C [8] was 86 % of control.
`O=[N+]([O-])c1cc([N+](=O)[O-])c(O)c([N+](=O)[O-])c1.OCc1cnc[nH]1` was tested, and the T/C [19] was 100 % of control [survivor count not shown], the T/C [3] was 100 % of control [survivor count not shown] and the T/C [4] was 90 % of control [survivor count not shown] (2×). The T/C [5] was 100 % of control [survivor count not shown], the T/C [7] was 113 % of control [survivor count not shown] and the T/C [9] was 113 % of control [survivor count not shown].
`CC[C@H](C)[C@@H]1NC(=O)/C(=C(\C)O)C1=O` was tested, and the T/C [13] was 113 % of control, the survivor count [14] was 5 of 8 and the survivor count [15] was 1 of 8. For the same compound, the survivor count [16] was 0 of 8.
For `CCCCC(CC)CO[P+](=O)OCC(CC)CCCC` (stereo not given), the T/C [20] was 100 % of control, the T/C (dose: 50.0 mg/kg/injection, schedule: Q01DX009 (ip), vehicle: saline with Tween-80) was 113 % of control and the T/C (dose: 50.0 mg/kg/injection, schedule: Q04DX003 (ip), vehicle: saline with Tween-80) was 100 % of control. For the same compound, the T/C [1] was 104 % of control, the T/C (dose: 100.0 mg/kg/injection, schedule: Q04DX003 (ip), vehicle: saline with Tween-80) was 104 % of control and the T/C (dose: 200.0 mg/kg/injection, schedule: Q04DX003 (ip), vehicle: saline with Tween-80) was 104 % of control.
With `CN(c1ccc(/C=C/c2ccccc2)cc1)P(=O)(Cl)Cl` the T/C (dose: 12.5 mg/kg/injection, schedule: Q01DX009 (ip), vehicle: saline with Tween-80) was 115 % of control, the T/C [20] was 113 % of control and the T/C (dose: 50.0 mg/kg/injection, schedule: Q01DX009 (ip), vehicle: saline with Tween-80, evaluated on day 30) was 106 % of control. The T/C (dose: 50.0 mg/kg/injection, schedule: Q01DX009 (ip), vehicle: saline with Tween-80, evaluated on day 35) was 109 % of control, the survivor count [1] was 6 of 6 and the survivor count [2] was 0 of 6.
`CN(Nc1c([N+](=O)[O-])cc([N+](=O)[O-])cc1[N+](=O)[O-])c1ccccc1` was tested, and the T/C (dose: 12.5 mg/kg/injection, schedule: Q01DX009 (ip), vehicle: Klucel (hydroxypropylcellulose) (HPC)) was 100 % of control [survivor count not shown], the T/C (dose: 12.5 mg/kg/injection, schedule: Q04DX003 (ip), vehicle: Klucel (hydroxypropylcellulose) (HPC)) was 100 % of control [survivor count not shown] and the T/C [19] was 91 % of control [survivor count not shown]. The T/C [17] was 91 % of control [survivor count not shown], the T/C [3] was 95 % of control [survivor count not shown] and the T/C [18] was 100 % of control [survivor count not shown]. For the same compound, the T/C [9] was 100 % of control [survivor count not shown].
With `CN(C)Nc1c([N+](=O)[O-])cc([N+](=O)[O-])cc1[N+](=O)[O-]` the T/C [4] was 86 % of control [survivor count not shown], the T/C [5] was 95 % of control [survivor count not shown] and the T/C [6] was 86 % of control [survivor count not shown]. For the same compound, the T/C [9] was 91 % of control [survivor count not shown].
For `CN(CCCl)CC1OC(O)C(O)C(O)C1O` (stereo not given), the T/C (dose: 33.0 mg/kg/injection, schedule: Q01DX009 (ip), vehicle: saline sonified) was 140 % of control [4 of 6 alive], the T/C (dose: 50.0 mg/kg/injection, schedule: Q01DX009 (ip), vehicle: saline sonified) was 172 % of control and the T/C (dose: 75.0 mg/kg/injection, schedule: Q01DX009 (ip), vehicle: saline sonified) was 104 % of control [5 of 6 alive].
`O=[N+]([O-])N1CN([N+](=O)[O-])CN([N+](=O)[O-])C1` was tested, and the T/C [10] was 96 % of control, the T/C [11] was 99 % of control and the survivor count [12] was 2 of 6.
`CC1CCCCN1.C[CH2][Sn]([Br])([CH2]C)[CH2]C` was tested, and the T/C (dose: 0.75 mg/kg/injection, schedule: Q01DX009 (ip), vehicle: Klucel (hydroxypropylcellulose) (HPC)) was 122 % of control, the T/C (dose: 1.5 mg/kg/injection, schedule: Q01DX009 (ip), vehicle: Klucel (hydroxypropylcellulose) (HPC)) was 106 % of control and the T/C (dose: 3.0 mg/kg/injection, schedule: Q01DX009 (ip), vehicle: Klucel (hydroxypropylcellulose) (HPC)) was 103 % of control. For the same compound, the T/C (dose: 6.0 mg/kg/injection, schedule: Q01DX009 (ip), vehicle: Klucel (hydroxypropylcellulose) (HPC)) was 111 % of control [5 of 6 alive] and the T/C (dose: 12.0 mg/kg/injection, schedule: Q01DX009 (ip), vehicle: Klucel (hydroxypropylcellulose) (HPC)) was 123 % of control [5 of 6 alive].
